Measured data: PubChem BioAssay AID686937 (Drosophila RNAi Screening Center, 2013)

- Purpose: 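Genes in the fly needed for secretion of protein constitutively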 (primary screen)
- Cells: Drosophila S2 cells expressing secreted horseradish peroxidase
- Reagents: long dsRNA against Drosophila genes
- Time to read-out: about 5.5 days (5 days dsRNA, then 12 h reporter induction)
- Challenge: reporter expression induced after 5 days of dsRNA, read 12 h later; inducer not stated
- Read-out: 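After 5 days of dsRNA and 12 h of reporter induction, medium peroxidase read by chemiluminescence and scored as per-plate z-score; higher values mean more reporter released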
- Reading the numbers: z-score: higher = more reporter secreted into medium
The screen tested about 23,000 reagents; below is an unselected part of those with a known target gene and a result. 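Reduced-secretion tags in replicate 1 do not always agree with the z-scores; no criterion for assigning the tags was given.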 Names joined by + are all predicted targets of the reagent. Further read-outs or replicates are left out here. Reagent sequences are not shown. The record does not give: the amount of reagent.

| gene | DRSC id | z-score, replicate 1 | z-score, replicate 2 | z-score, replicate 3 | z-score, replicate 4 |
| --- | --- | --- | --- | --- | --- |
| Nup50 (Nucleoporin 50kD) | DRSC06827 | 0.13 | 0.22 | – | – |
| CG10226 | DRSC09715 | 0.18 | 0.35 | – | – |
| CG18420 | DRSC01954 | 0.41 | 0.13 | – | – |
| CG8641 | DRSC11028 | 0.25 | 0.18 | – | – |
| comm2 | DRSC09881 | -0.49 | 0.05 | – | – |
| comm2 | DRSC10877 | 0.49 | 0.21 | – | – |
| Sfp26Ad (Seminal fluid protein 26Ad) | DRSC00904 | -1.37 | 0.23 | – | – |
| lncRNA:CR30055 (long non-coding RNA:CR30055) | DRSC22439 | 2.54 | 0.11 | – | – |
| Cap-H2 (Chromosome associated protein H2) | DRSC14908 | 0.37 | 0.22 | – | – |
| CG31855 | DRSC02968 | 1.26 | 0.45 | – | – |
| Sirt6 (Sirtuin 6) | DRSC16010 | 0.29 | 0.08 | – | – |
| CG10591 | DRSC09748 | 0.53 | 0.51 | – | – |
| CG7950 + Rpp14a | DRSC16353 | 0.14 | -0.24 | – | – |
| CG4116 | DRSC18348 | 0.35 | 0.43 | – | – |
| lncRNA:CR43498 (long non-coding RNA:CR43498) | DRSC17621 | 0.16 | 0.18 | – | – |
| CG14693 | DRSC14916 | 0.59 | 0.82 | – | – |
| Or43a (Odorant receptor 43a) | DRSC07485 | 0.44 | 0.34 | – | – |
| CG9616 | DRSC16518 | 0.52 | 0.12 | – | – |
| fz (frizzled) | DRSC11348 | 0.2 | 0.34 | – | – |
| CG11790 | DRSC14390 | 0.43 | 0.51 | – | – |
| Cirl (Calcium-independent receptor for alpha-latrotoxin) | DRSC07227 | -1.18 | -1.35 | – | – |
| Cirl (Calcium-independent receptor for alpha-latrotoxin) | DRSC21942 | 0.93 | 0.49 | – | – |
| CG42811 | DRSC15367 | 0.26 | 0.32 | – | – |
| AkhR (Adipokinetic hormone receptor) | DRSC03329 | 0.34 | 0.17 | – | – |
| Pat1 (Protein interacting with APP tail-1) | DRSC17750 | 0.43 | 0.32 | – | – |
| Nhe1 (Na[+]/H[+] hydrogen exchanger 1) | DRSC00762 | 0.4 | 0.37 | – | – |
| Rpn8 (Regulatory particle non-ATPase 8) | DRSC04624 | -6.44 | -6.99 | – | – |
| AstC-R2 (Allatostatin C receptor 2) | DRSC10051 | 0.38 | 0.46 | – | – |
| CG17005 | DRSC02556 | 0.45 | 0.34 | – | – |
| CG15599 | DRSC19668 | 0.04 | 0.13 | – | – |
| CG14545 | DRSC14889 | 0.24 | 0.36 | – | – |
| Slc25A46a | DRSC20125 | 0.34 | 0.32 | – | – |
| CG13616 | DRSC14619 | -0.67 | 0.25 | – | – |
| ase (asense) | DRSC18739 | 0.35 | 0.35 | – | – |
| Mal-A5 (Maltase A5) | DRSC07232 | 0.55 | 0.44 | – | – |
| CG32687 | DRSC18210 | 0.15 | 0.71 | – | – |
| CG32687 | DRSC18237 | 0.2 | 0.02 | – | – |
| gny (garnysstan) | DRSC02810 | 0.5 | 0.25 | – | – |
| CG14515 | DRSC14867 | 0.33 | 0.43 | – | – |
| ssh (slingshot) | DRSC16730 | 0.51 | 0.54 | – | – |
| Prosalpha4 (Proteasome alpha4 subunit) | DRSC20271 | 0.21 | -0.36 | – | – |
| VhaPPA1-2 (Vacuolar H[+] ATPase PPA1 subunit 2) | DRSC16176 | 0.63 | 0.72 | – | – |
| CG8516 | DRSC16437 | 0.34 | 0.52 | – | – |
| PGRP-LA (Peptidoglycan recognition protein LA) | DRSC10327 | 0.5 | 0.53 | – | – |
| PGRP-LA (Peptidoglycan recognition protein LA) | DRSC10414 | 0.28 | 0.27 | – | – |
| CG31204 | DRSC15106 | 0.4 | 0.41 | – | – |
| CR46300 (pseudo) | DRSC12467 | 0.56 | 0.5 | – | – |
| Hr4 (Hormone receptor 4) | DRSC18495 | -2.97 | -1.78 | 0.36 | 0.36 |
| Hr4 (Hormone receptor 4) | DRSC18599 | 0.07 | 0.02 | – | – |
| Hr4 (Hormone receptor 4) | DRSC22269 | -1.14 | -0.83 | – | – |
| Hr4 (Hormone receptor 4) | DRSC22677 | 2.48 | 0.94 | – | – |
| CG10750 | DRSC02105 | 0.36 | 0.37 | – | – |
| Ir67c (Ionotropic receptor 67c) | DRSC22097 | 0.35 | 0.14 | – | – |
| CG6204 | DRSC15991 | 0.22 | 0.11 | – | – |
| Rac2 | DRSC11262 | -0.64 | -0.11 | – | – |
| CG31496 | DRSC12547 | -1.15 | -0.83 | – | – |

7 successive records from above:
| gene | DRSC id | z-score, replicate 1 | z-score, replicate 2 | z-score, replicate 3 | z-score, replicate 4 |
| --- | --- | --- | --- | --- | --- |
| Rpn8 (Regulatory particle non-ATPase 8) | DRSC04624 | -6.44 | -6.99 | – | – |
| AstC-R2 (Allatostatin C receptor 2) | DRSC10051 | 0.38 | 0.46 | – | – |
| CG17005 | DRSC02556 | 0.45 | 0.34 | – | – |
| CG15599 | DRSC19668 | 0.04 | 0.13 | – | – |
| CG14545 | DRSC14889 | 0.24 | 0.36 | – | – |
| Slc25A46a | DRSC20125 | 0.34 | 0.32 | – | – |
| CG13616 | DRSC14619 | -0.67 | 0.25 | – | – |
